In this experiment the target is BSA, P02769. The experiment can be described thus: condition: 0.1, 1.0, 10, and 20 μg/ml coated; 10% human serum; ELISA; His-tag recombinant proteins or BSA (0.1, 1.0, 10, and 20 μg/ml, 100 μl) immobilized on the 96-well plate overnight at 4°C; 10% human serum added, 37°C for 1 h; bound FH detected with anti-FH monoclonal antibody, OD450; only the target purified. Conditions: remark: other sources report otherwise. For orientation: An ELISA detects its analyte on a solid surface through an enzyme-linked reagent.

These are yes or no findings as the source states them, for the method shown.

B1: Factor H in human serum, P08603 19-1231 (protein)
chain: EDCNELPPRRNTEILTGSWSDQTYPEGTQAIYKCRPGYRSLGNVIMVCRKGEWVALNPLRKCQKRPCGHPGDTPFGTFTLTGGNVFEYGVKAVYTCNEGYQLLGEINYRECDTDGWTNDIPICEVVKCLPVTAPENGKIVSSAMEPDREYHFGQAVRFVCNSGYKIEGDEEMHCSDDGFWSKEKPKCVEISCKSPDVINGSPISQKIIYKENERFQYKCNMGYEYSERGDAVCTESGWRPLPSCEEKSCDNPYIPNGDYSPLRIKHRTGDEITYQCRNGFYPATRGNTAKCTSTGWIPAPRCTLKPCDYPDIKHGGLYHENMRRPYFPVAVGKYYSYYCDEHFETPSGSYWDHIHCTQDGWSPAVPCLRKCYFPYLENGYNQNYGRKFVQGKSIDVACHPGYALPKAQTTVTCMENGWSPTPRCIRVKTCSKSSIDIENGFISESQYTYALKEKAKYQCKLGYVTADGETSGSITCGKDGWSAQPTCIKSCDIPVFMNARTKNDFTWFKLNDTLDYECHDGYESNTGSTTGSIVCGYNGWSDLPICYERECELPKIDVHLVPDRKKDQYKVGEVLKFSCKPGFTIVGPNSVQCYHFGLSPDLPICKEQVQSCGPPPELLNGNVKEKTKEEYGHSEVVEYYCNPRFLMKGPNKIQCVDGEWTTLPVCIVEESTCGDIPELEHGWAQLSSPPYYYGDSVEFNCSESFTMIGHRSITCIHGVWTQLPQCVAIDKLKKCKSSNLIILEEHLKNKKEFDHNSNIRYRCRGKEGWIHTVCINGRWDPEVNCSMAQIQLCPPPPQIPNSHNMTTTLNYRDGEKVSVLCQENYLIQEGEEITCKDGRWQSIPLCVEKIPCSQPPQIEHGTINSSRSSQESYAHGTKLSYTCEGGFRISEENETTCYMGKWSSPPQCEGLPCKSPPEISHGVVAHMSDSYQYGEEVTYKCFEGFGIDGPAIAKCLGEKWSHPPSCIKTDCLSLPSFENAIPMGEKKDVYKAGEQVTYTCATYYKMDGASNVTCINSRWTGRPTCRDTSCVNPPTVQNAYIVSRQMSKYPSGERVRYQCRSPYEMFGDEEVMCLNGNWTEPPQCKDSTGKCGPPPPIDNGDITSFPLSVYAPASSVEYQCQNLYQLEGNKRITCRNGQWSEPPKCLHPCVISREIMENYNIALRWTAKQKLYSRTGESVEFVCKRGYRLSSRSHTLRTTCWDGKLEYPTCAKR
On to B1, for which the binding entry is on record as “no binding”.
